Experimental data from PMC3778836.
Results are given in words; binding and its absence hold for the method and conditions named. Binding seen in cells or lysates may run through a third protein. Some binding calls cover weakened binding; strength is not graded here. Where a sequence is shown, tags or fusion partners need not be part of it.

Target: T1, GFP-tagged HELQ (U2OS) (human) (UniProt Q8TDG4)
T1 sequence: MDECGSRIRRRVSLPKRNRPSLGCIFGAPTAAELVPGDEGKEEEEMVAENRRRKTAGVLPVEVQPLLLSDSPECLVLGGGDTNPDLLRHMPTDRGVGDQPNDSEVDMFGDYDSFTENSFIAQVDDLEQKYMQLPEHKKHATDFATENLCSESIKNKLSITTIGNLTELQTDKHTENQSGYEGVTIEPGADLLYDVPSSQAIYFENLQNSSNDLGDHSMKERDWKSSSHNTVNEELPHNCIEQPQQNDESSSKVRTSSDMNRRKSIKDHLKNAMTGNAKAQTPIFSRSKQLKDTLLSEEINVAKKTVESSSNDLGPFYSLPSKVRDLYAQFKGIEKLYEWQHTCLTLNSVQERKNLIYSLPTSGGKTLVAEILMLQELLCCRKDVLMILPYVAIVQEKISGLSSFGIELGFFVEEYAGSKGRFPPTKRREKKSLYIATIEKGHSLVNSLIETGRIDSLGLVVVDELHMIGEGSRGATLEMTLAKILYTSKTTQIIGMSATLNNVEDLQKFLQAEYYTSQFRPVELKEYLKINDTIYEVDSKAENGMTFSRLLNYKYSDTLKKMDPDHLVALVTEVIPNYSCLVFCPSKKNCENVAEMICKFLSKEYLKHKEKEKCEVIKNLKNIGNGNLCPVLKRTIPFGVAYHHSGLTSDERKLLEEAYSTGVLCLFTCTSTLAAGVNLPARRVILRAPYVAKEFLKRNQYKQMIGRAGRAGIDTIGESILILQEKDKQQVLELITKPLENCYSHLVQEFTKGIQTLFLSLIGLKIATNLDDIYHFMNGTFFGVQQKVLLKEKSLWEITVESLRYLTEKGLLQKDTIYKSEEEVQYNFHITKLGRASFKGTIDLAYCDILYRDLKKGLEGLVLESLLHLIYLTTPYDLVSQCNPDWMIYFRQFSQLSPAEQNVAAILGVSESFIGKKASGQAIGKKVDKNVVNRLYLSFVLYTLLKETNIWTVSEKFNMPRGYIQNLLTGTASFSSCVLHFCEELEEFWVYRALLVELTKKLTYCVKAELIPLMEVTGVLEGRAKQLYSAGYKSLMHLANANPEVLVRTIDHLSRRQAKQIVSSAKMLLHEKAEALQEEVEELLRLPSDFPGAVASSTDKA
Assay: co-IP; U2OS co-transfected; whole-cell extract; anti-GFP agarose; immunoblotting (Supplementary Fig. S2)

binding: binds
B1: DsRed-Monomer-tagged RAD51B (U2OS) (protein, UniProt O15315 1-384)
chain: MGSKKLKRVGLSQELCDRLSRHQILTCQDFLCLSPLELMKVTGLSYRGVHELLCMVSRACAPKMQTAYGIKAQRSADFSPAFLSTTLSALDEALHGGVACGSLTEITGPPGCGKTQFCIMMSILATLPTNMGGLEGAVVYIDTESAFSAERLVEIAESRFPRYFNTEEKLLLTSSKVHLYRELTCDEVLQRIESLEEEIISKGIKLVILDSVASVVRKEFDAQLQGNLKERNKFLAREASSLKYLAEEFSIPVILTNQITTHLSGALASQADLVSPADDLSLSEGTSGSSCVIAALGNTWSHSVNTRLILQYLDSERRQILIAKSPLAPFTSFVYTIKEEGLVLQETTFCSVTQAELNWAPEILPPQPPEQLGLQMCHHTQLIF
